These are yes or no findings as the source states them, for the method shown. For part of these data: Binding seen in cells or lysates may run through a third protein. Some binding calls cover weakened binding; strength is not graded here.
Columns and labels:
[1] = target: Ubiquitin-specific protease 7 (USP7) (human (endogenous in PLC-PRF-5 and HepG2)) (UniProt Q93009); experiment: proximity ligation; duo-link PLA in PLC-PRF-5 and HepG2 cells; red dots indicate protein interaction
[2] = target: Ubiquitin-specific protease 7 (USP7) (human (endogenous in PLC-PRF-5 and HepG2)) (UniProt Q93009); experiment: SEC; PLC-PRF-5 cell extracts on Superdex 200 10/300 GL in 1x PBS, 0.5 mL/min; fractions blotted for USP7 and YY1; overlap peaked at fraction 17
[3] = target: Ubiquitin-specific protease 7 (USP7) (human (endogenous in PLC-PRF-5 and HepG2)) (UniProt Q93009); experiment: co-IP; PLC-PRF-5 and HepG2 cell lysates (0.3% Nonidet P-40 lysis buffer) on antibody-conjugated protein A/G agarose, 12 h; Western blot with USP7 and YY1 antibodies

By UniProt entry, the sequences of proteins in these tests, tags left out.
UniProt Q93009: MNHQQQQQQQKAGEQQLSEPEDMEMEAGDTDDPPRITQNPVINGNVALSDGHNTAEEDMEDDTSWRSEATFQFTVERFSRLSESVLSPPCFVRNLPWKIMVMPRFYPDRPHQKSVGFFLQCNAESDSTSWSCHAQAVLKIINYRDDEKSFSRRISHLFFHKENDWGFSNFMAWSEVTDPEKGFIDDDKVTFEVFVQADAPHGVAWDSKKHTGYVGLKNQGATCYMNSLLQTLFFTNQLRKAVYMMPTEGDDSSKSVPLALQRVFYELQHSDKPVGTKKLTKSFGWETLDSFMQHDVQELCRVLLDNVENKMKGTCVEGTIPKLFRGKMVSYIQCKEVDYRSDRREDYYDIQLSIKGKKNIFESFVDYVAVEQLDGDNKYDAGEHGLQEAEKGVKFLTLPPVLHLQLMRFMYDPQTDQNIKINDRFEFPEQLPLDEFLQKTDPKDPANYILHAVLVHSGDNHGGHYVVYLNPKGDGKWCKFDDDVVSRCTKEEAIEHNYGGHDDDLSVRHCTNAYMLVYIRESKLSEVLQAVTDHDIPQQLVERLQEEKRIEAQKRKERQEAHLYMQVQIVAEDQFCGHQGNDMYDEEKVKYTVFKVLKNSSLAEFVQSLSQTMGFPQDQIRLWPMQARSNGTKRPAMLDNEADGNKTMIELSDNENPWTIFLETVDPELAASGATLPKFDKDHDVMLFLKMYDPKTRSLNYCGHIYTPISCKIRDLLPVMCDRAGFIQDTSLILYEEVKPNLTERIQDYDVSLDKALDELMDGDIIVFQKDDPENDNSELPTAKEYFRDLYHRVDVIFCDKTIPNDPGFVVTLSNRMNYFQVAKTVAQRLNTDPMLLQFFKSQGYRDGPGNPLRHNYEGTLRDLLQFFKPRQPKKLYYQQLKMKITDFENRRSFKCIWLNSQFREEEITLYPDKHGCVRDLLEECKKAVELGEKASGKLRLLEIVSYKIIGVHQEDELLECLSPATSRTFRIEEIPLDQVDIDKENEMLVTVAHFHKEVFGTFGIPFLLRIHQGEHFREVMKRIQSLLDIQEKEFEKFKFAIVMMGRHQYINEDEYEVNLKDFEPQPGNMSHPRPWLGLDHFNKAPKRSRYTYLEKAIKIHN
UniProt P25490: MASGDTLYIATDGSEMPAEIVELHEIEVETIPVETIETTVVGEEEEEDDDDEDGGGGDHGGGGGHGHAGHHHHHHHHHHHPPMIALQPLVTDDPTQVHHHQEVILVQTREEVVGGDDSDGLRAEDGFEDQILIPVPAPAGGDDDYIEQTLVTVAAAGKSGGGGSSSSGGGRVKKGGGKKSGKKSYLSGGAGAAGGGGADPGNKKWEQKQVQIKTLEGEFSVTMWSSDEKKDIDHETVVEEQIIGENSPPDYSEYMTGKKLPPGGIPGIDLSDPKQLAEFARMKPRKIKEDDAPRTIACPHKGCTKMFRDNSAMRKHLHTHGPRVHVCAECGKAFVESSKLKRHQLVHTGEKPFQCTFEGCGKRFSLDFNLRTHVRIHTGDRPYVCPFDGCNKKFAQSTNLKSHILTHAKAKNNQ

binding [1]: binds | binding [2]: binds | binding [3]: binds
Substance: Yin-yang-1 (YY1) (from UniProt P25490 1-414)

— publication PMC10321013
